# From the supplement of paper PMC10338343
# ± gives the standard deviation. The entries are a selection whose mix differs from that of the whole data set. Many entries were measured with a wide error.
# Tested on: EfPiwi piRISC loaded with piRNA #1 (26 nt)
# Test: pre-steady-state target cleavage rate (min^-1); guide: piRNA #1 5'p-UGAGGUAGUAGGUUGUAUAGUAUCCA; MIWI and MILI are mouse PIWI proteins and EfPiwi is from a freshwater sponge; tags in brackets are library labels; higher = faster piRNA-guided slicing of the target
# Conditions: auxiliary factor: 500 nM Ephydatia muelleri Gtsf1
# Summary of the method: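 Cleave-'n-Seq used a transcribed, DNA-blocked target RNA library at 0.1 nM and active affinity-purified piRISC with one synthetic guide at 1 nM, with or without 500 nM GTSF1 partner protein, in HEPES–potassium acetate buffer at 33 °C for 0–8 or 0–960 min. Uncleaved targets were sequenced and normalised to depth and to weakly complementary targets, and three trials were pooled with k3 capped at 0.0001 min^-1. The pre-steady-state cleavage rate was estimated by a burst-and-steady-state fit.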
row,Sequence,pre-steady-state target cleavage rate
1,GGAGACGAUACUACUACAACCUACUACCUCA,0.0327 ± 0.012
2,GGAGACGAUACUAUACAACCUACUACCACA,0.00487 ± 0.0013
3,GGAGAGGUUACUAUACAACCUACUUCCUCA,0.0033 ± 0.002
4,GGAGUGGAAACUAUACAACCUACUACCUGA,0.00283 ± 0.0023
5,GGAGUGCAUACUAUAGAACCUACUACCUCA,0.00125 ± 0.0023
6,GGAGUGGAUACUAGUACAACCUACUACCUCA,0.175 ± 0.056
7,GGAGACCUAUGUAUACAAGCUAGUACCUCA,0.00105 ± 0.0067
8,GGAGACCUAACUAUACAACCUACUGACCUCA,0.00224 ± 0.0054
9,GGAGACCAUACUAUCACAACCUACUACCUCA,0.0399 ± 0.014
10,GGAGACCUUACUAUACAACGUACUACCACA,0.00221 ± 0.0032
11,GGAGUGGAUACUAUACAACCAACUACCUGA,0.00303 ± 0.0013
12,GGAGACCUUUCUAUACAACCUACUACGUCA,0.00332 ± 0.0036
13,GGAGACCAUACUAUACAACGUACUACCUGA,0.00457 ± 0.0027
14,GGAGACGAUAGUAUACAUCCUACUACCUCA,0.00323 ± 0.0026
15,GGAGACGAAUCUAUACAACCUACUACCUCA,0.0517 ± 0.018
16,GGAGACCUAUGAUAUGUUCCUACUACCACA,0.000129 ± 0.014
17,GGAGACCUAUCUAUACAACCUCCUACCUCA,0.00509 ± 0.0028
18,GGAGACGAUACUAUACAACCUACAUACCUCA,0.00413 ± 0.0021
19,GGAGACCUUACUAUAGAACCUACUACCUCA,0.00324 ± 0.0026
20,GGAGACCUAUCAAUACAACCUACUAGCUCA,0.00221 ± 0.0046

row,Sequence,pre-steady-state target cleavage rate
1,GGAGUGGAUAGUAUUCAACCUACUACCUCA,0.00162 ± 0.0047
2,GGAGACCUAUGAUAUCAACGUAGUACCUCA,0.00022 ± 0.013
3,GGAGUGGAUAGUAUACAACCUACUUCCUCA,0.00264 ± 0.0019
4,GGAGACCUUACUAUACAACCUAGCUACCUCA,0.00326 ± 0.0038
5,GGAGACCUAUGUUUACAAGCUACUACCUCA,0.00111 ± 0.0052
6,GGAGAGGAUACUUUACAACCAACUACCUCA,0.00291 ± 0.0016
7,GGAGACCUAACUAUACAACCUACUACCUCC [g2:g21:cont:t1C],0.00701 ± 0.0033
8,GGAGAGGAUACUUUACAACCUUCUACCUCA,0.0032 ± 0.0028
9,GGAGACCAUACUUUAGAACCUACUACCUCA,0.00256 ± 0.0031
10,GGAGUGGAUACUAUACAACCUUCUACCACA,0.00272 ± 0.0016
11,GGAGAGGAUACUAUACAACCUACUACGUCA,0.00636 ± 0.0029
12,GGAGACCUAUGAUAUGUUGGUACUACGACA,0.00015 ± 0.016
13,GGAGUGGAUACUAUACAAGGAUGAUGGAGA [g13:g26:cont:t1A],0.000346 ± 0.01
14,GGAGACCUUACUUUACAACCUACUACCUGA,0.00277 ± 0.0039
15,GGAGUGGUUACUUUACAACCUACUACCUCA,0.00342 ± 0.0031
16,GGAGACCUAACUAUACAACCUACUACCGUCA,0.0162 ± 0.0091
17,GGAGACCUAACUAUACAACCUCCUACCUCA,0.00446 ± 0.0029
18,GGAGUGGAUACUAUACAAGCUACUACCUCA,0.008 ± 0.0032
19,GGAGUGCAUACUUUACAACCUACUACCUCA,0.00271 ± 0.0039
20,GGAGACCUAUCUAUACAACCUAAUACCUCA,0.00285 ± 0.0041

# Given as tab-separated lines: entries from further up
row	Sequence	pre-steady-state target cleavage rate
9	GGAGACCAUACUUUAGAACCUACUACCUCA	0.00256 ± 0.0031
10	GGAGUGGAUACUAUACAACCUUCUACCACA	0.00272 ± 0.0016
11	GGAGAGGAUACUAUACAACCUACUACGUCA	0.00636 ± 0.0029
12	GGAGACCUAUGAUAUGUUGGUACUACGACA	0.00015 ± 0.016
13	GGAGUGGAUACUAUACAAGGAUGAUGGAGA [g13:g26:cont:t1A]	0.000346 ± 0.01
14	GGAGACCUUACUUUACAACCUACUACCUGA	0.00277 ± 0.0039
15	GGAGUGGUUACUUUACAACCUACUACCUCA	0.00342 ± 0.0031
16	GGAGACCUAACUAUACAACCUACUACCGUCA	0.0162 ± 0.0091
17	GGAGACCUAACUAUACAACCUCCUACCUCA	0.00446 ± 0.0029
18	GGAGUGGAUACUAUACAAGCUACUACCUCA	0.008 ± 0.0032
19	GGAGUGCAUACUUUACAACCUACUACCUCA	0.00271 ± 0.0039
20	GGAGACCUAUCUAUACAACCUAAUACCUCA	0.00285 ± 0.0041
